Taken from: PubChem BioAssay AID1259308 (NCATS, 2017)

Purpose: 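Candidate targets for better recombinant protein yield in mammalian cells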 (primary screen)
Cell system: human HEK293 embryonic kidney cells stably expressing firefly luciferase (HEK-CMV-Luc2-Hygro)
Reagent: single siRNA against human genes, 0.8 pmol siRNA per well
Time to read-out: 72 h
Detection: 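Luciferase light (ONE-Glo) measured on one replicate plate set and viability (CellTiter-Glo) on the other, scaled to a negative control siRNA, with robust z-scores and luciferase per cell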
Scale: total luciferase, z-score and total luciferase, % of control: higher = more reporter protein produced
Active means: 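Active when the median/MAD z-score for overall luciferase is greater than 3; a gene was taken forward for validation with new siRNAs if at least two of its three siRNAs passed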
Calls: active = raised luciferase; inactive = no rise
Shown is one part, drawn at random, of about 59,000 deposited reagents. Over the whole deposit, about 1,510 (2.6%) were called active. 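Calls use total luciferase alone and ignore viability, so some active siRNAs may act by altering cell number.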 The numbers tell different reagents against one gene apart. Not all columns of the deposit are shown.

ST13P8 (ST13, Hsp70 interacting protein pseudogene 8) #1 scored total luciferase, z-score -2.95; total luciferase, % of control 23.3; inactive.
Against ST13P8 (ST13, Hsp70 interacting protein pseudogene 8) #2 the deposit lists total luciferase, z-score 1.11; total luciferase, % of control 104; inactive.
Depletion of ST13P8 (ST13, Hsp70 interacting protein pseudogene 8) #3 came out at: total luciferase, z-score 0.506; total luciferase, % of control 92; inactive.
LOC729254 (hCG2045843) #1 showed total luciferase, z-score -0.498; total luciferase, % of control 72; inactive.
LOC729254 (hCG2045843) #2 showed total luciferase, z-score 0.101; total luciferase, % of control 83.9; inactive.
For LOC729254 (hCG2045843) #3, the entry reads total luciferase, z-score -2.88; total luciferase, % of control 24.6; inactive.
IL32 (interleukin 32) #1 showed total luciferase, z-score 0.495; total luciferase, % of control 91.7; inactive.
After knock-down of IL32 (interleukin 32) #2, the record shows total luciferase, z-score -1.71; total luciferase, % of control 47.8; inactive.
After knock-down of IL32 (interleukin 32) #3, the record shows total luciferase, z-score 0.0452; total luciferase, % of control 82.8; inactive.
Knock-down of GPS1 (G protein pathway suppressor 1) #1 gave: total luciferase, z-score -0.128; total luciferase, % of control 79.3; inactive.
After knock-down of GPS1 (G protein pathway suppressor 1) #2, the record shows total luciferase, z-score -0.839; total luciferase, % of control 65.2; inactive.
With knock-down of GPS1 (G protein pathway suppressor 1) #3, the screen gave total luciferase, z-score -0.128; total luciferase, % of control 79.3; inactive.
THAP11 (THAP domain containing 11) #1 showed total luciferase, z-score 0.744; total luciferase, % of control 96.7; inactive.
Against THAP11 (THAP domain containing 11) #2 the deposit lists total luciferase, z-score -0.505; total luciferase, % of control 71.8; inactive.
After knock-down of THAP11 (THAP domain containing 11) #3, the record shows total luciferase, z-score 0.766; total luciferase, % of control 97.1; inactive.
After knock-down of ZC3H12B (zinc finger CCCH-type containing 12B) #1, the record shows total luciferase, z-score 0.146; total luciferase, % of control 84.8; inactive.
Depletion of ZC3H12B (zinc finger CCCH-type containing 12B) #2 gave: total luciferase, z-score -1.32; total luciferase, % of control 55.7; inactive.
ZC3H12B (zinc finger CCCH-type containing 12B) #3 showed total luciferase, z-score -0.312; total luciferase, % of control 75.7; inactive.
After knock-down of TRMT1L (tRNA methyltransferase 1L) #1, the record shows total luciferase, z-score 1.27; total luciferase, % of control 107; inactive.
For TRMT1L (tRNA methyltransferase 1L) #2, the values are total luciferase, z-score -1.23; total luciferase, % of control 57.4; inactive.
TRMT1L (tRNA methyltransferase 1L) #3 gave total luciferase, z-score 0.149; total luciferase, % of control 84.9; inactive.

Reformatted: results already given.
gene,reagent no.,"total luciferase, z-score","total luciferase, % of control",Call
THAP11 (THAP domain containing 11),2,-0.505,71.8,inactive
THAP11 (THAP domain containing 11),3,0.766,97.1,inactive

More entries follow:
Against SETD6 (SET domain containing 6, protein lysine methyltransferase) #1, the entry reads total luciferase, z-score -1.14; total luciferase, % of control 59.1; inactive.
With knock-down of SETD6 (SET domain containing 6, protein lysine methyltransferase) #2, the screen gave total luciferase, z-score -0.231; total luciferase, % of control 77.3; inactive.
SETD6 (SET domain containing 6, protein lysine methyltransferase) #3 showed total luciferase, z-score 1.53; total luciferase, % of control 112; inactive.
For CLIC6 (CLIC family member 6) #1, the values are total luciferase, z-score -0.57; total luciferase, % of control 70.6; inactive.
Depletion of CLIC6 (CLIC family member 6) #2 gave: total luciferase, z-score -0.291; total luciferase, % of control 76.1; inactive.
Knock-down of CLIC6 (CLIC family member 6) #3 resulted in: total luciferase, z-score -0.139; total luciferase, % of control 79.1; inactive.
For FAM177B (family with sequence similarity 177 member B) #1 the deposit lists total luciferase, z-score 0.368; total luciferase, % of control 89.2; inactive.
After knock-down of FAM177B (family with sequence similarity 177 member B) #2, the screen gave total luciferase, z-score 2.47; total luciferase, % of control 131; inactive.
Silencing of FAM177B (family with sequence similarity 177 member B) #3 gave: total luciferase, z-score -1.1; total luciferase, % of control 59.9; inactive.
After knock-down of ATOSA (atos homolog A) #1, the record shows total luciferase, z-score 0.27; total luciferase, % of control 87.3; inactive.
For ATOSA (atos homolog A) #2 the deposit lists total luciferase, z-score -0.16; total luciferase, % of control 78.7; inactive.
ATOSA (atos homolog A) #3 gave total luciferase, z-score -0.00553; total luciferase, % of control 81.8; inactive.
